Laboratory results published in article doi:10.1101/2024.03.28.587199.
These are yes or no findings as the source states them, for the method shown. Binding seen in cells or lysates may run through a third protein. Some entries that bind do so weakly or less than the wild type.

Target: BRASSINOSTEROID … 1 (BRI1)-GFP (Arabidopsis thaliana) (UniProt O22476)
Assay: co-IP

B1: BRASSINOSTEROID … 1 (BRI1)-ASSOCIATED KINASE 1 (BAK1) (receptor, UniProt Q94F62 26-615)
chain: NAEGDALSALKNSLADPNKVLQSWDATLVTPCTWFHVTCNSDNSVTRVDLGNANLSGQLVMQLGQLPNLQYLELYSNNITGTIPEQLGNLTELVSLDLYLNNLSGPIPSTLGRLKKLRFLRLNNNSLSGEIPRSLTAVLTLQVLDLSNNPLTGDIPVNGSFSLFTPISFANTKLTPLPASPPPPISPTPPSPAGSNRITGAIAGGVAAGAALLFAVPAIALAWWRRKKPQDHFFDVPAEEDPEVHLGQLKRFSLRELQVASDNFSNKNILGRGGFGKVYKGRLADGTLVAVKRLKEERTQGGELQFQTEVEMISMAVHRNLLRLRGFCMTPTERLLVYPYMANGSVASCLRERPESQPPLDWPKRQRIALGSARGLAYLHDHCDPKIIHRDVKAANILLDEEFEAVVGDFGLAKLMDYKDTHVTTAVRGTIGHIAPEYLSTGKSSEKTDVFGYGVMLLELITGQRAFDLARLANDDDVMLLDWVKGLLKEKKLEALVDVDLQGNYKDEEVEQLIQVALLCTQSSPMERPKMSEVVRMLEGDGLAERWEEWQKEEMFRQDFNYPTHHPAVSGWIIGDSTSQIENEYPSGPR
  binding: binds
